No constants are given. Whether binding was seen depends on the method and setting. Binding seen in cells or lysates may run through a third protein. Here binding means that the protein was enriched with, or labelled near, the bait; the list need not be complete.
Target: FLAG-epitope-tagged full-length CUB domain-containing protein 1 (CDCP1) (UniProt Q9H5V8)
Assay: affinity purification with mass spectrometry; anti-FLAG affinity purification from MDA-MB-231 cells transduced with FLAG-tagged ΔCDCP1 or CDCP1, with or without 100 μM sodium pervanadate for 15 minutes; stained SDS-PAGE bands excised and identified by LC-MS/MS

Amino acid sequences for entries named in this document (tags omitted). Residues count along the entry.
UniProt Q9H5V8, residues 30-836: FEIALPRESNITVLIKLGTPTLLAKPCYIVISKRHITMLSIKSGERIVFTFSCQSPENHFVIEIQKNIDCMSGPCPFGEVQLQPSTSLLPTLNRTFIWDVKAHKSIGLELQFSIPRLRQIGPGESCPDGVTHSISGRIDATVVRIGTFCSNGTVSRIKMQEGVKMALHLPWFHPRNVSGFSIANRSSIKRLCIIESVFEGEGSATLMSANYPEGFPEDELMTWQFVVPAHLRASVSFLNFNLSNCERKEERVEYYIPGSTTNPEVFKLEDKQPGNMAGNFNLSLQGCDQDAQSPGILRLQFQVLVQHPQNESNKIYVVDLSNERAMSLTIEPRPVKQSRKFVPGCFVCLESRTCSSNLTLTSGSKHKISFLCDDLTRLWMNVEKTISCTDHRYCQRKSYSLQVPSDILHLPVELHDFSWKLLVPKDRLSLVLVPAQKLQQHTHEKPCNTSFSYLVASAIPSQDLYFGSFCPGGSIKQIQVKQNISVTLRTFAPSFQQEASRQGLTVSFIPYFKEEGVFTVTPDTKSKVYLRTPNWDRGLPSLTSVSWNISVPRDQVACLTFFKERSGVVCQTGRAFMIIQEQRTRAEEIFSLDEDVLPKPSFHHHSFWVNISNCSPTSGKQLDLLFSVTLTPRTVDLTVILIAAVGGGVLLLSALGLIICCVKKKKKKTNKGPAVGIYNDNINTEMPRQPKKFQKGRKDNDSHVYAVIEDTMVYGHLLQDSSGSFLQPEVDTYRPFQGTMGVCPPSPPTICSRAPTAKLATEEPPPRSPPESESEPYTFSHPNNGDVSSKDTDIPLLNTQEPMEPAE
UniProt Q9NR12: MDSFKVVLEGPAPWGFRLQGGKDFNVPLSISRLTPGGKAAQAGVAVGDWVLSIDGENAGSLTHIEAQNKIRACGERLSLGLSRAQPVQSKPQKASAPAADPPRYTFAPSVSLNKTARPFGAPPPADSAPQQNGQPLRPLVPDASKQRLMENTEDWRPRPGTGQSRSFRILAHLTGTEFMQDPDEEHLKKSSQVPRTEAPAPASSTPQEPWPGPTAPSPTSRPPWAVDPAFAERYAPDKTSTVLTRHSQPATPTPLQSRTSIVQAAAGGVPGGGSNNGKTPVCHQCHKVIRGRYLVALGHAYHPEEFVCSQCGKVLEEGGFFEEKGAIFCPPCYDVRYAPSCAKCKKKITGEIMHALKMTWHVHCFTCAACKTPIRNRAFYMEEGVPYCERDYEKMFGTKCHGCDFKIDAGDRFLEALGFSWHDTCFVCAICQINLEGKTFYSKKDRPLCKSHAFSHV
UniProt P08670: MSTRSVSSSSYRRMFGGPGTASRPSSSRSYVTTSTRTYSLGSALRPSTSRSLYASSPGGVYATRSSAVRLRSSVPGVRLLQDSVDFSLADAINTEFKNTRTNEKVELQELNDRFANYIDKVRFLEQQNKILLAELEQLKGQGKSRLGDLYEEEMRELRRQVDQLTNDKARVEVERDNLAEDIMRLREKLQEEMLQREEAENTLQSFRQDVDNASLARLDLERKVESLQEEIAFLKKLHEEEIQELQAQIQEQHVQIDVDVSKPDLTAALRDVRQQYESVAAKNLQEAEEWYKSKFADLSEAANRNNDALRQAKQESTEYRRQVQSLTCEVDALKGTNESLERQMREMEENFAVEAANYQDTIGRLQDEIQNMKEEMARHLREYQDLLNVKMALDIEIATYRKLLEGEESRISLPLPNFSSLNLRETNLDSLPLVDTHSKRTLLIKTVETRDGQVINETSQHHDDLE

“Enigma/PDLIM7 in MDA-MB-231 cells (from UniProt Q9NR12 1-457)” was tested, and the binding was “binds”.

For vimentin (from UniProt P08670 1-466), the binding was “binds”.

Reference: PMC4974783
